Measurements reported in paper PMC7755605.
No constants are given. Whether binding was seen depends on the method and setting. In cells and extracts the contact can be indirect. A result given as binding can be weak or reduced; the word gives no strength. Sequences can lack the tags named with a protein.

Protein sequences, listed by entry. Tags and fused reporters are not part of them. Lines headed by an entry give the natural chain unless they say otherwise; changes in a name come on top.
UniProt P97546: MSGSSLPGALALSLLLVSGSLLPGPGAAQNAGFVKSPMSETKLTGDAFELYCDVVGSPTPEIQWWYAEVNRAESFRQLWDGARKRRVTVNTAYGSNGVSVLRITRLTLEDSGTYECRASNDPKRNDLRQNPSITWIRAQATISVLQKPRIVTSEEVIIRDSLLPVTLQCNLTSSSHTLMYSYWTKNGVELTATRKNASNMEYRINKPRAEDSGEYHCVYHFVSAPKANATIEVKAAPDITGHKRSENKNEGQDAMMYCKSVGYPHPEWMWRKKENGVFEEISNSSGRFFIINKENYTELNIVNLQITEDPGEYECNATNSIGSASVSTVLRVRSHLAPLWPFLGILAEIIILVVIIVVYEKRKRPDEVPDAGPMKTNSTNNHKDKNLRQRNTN

Experiments:
Experiment in all cases: co-IP; HEK cells co-transfected for 24 h with GFP-tagged neuroplastin constructs and Flag-TRAF6; RIPA lysate; anti-GFP magnetic beads (uMACS), 4 h at 4 C; blot with anti-Flag and anti-GFP
[1] = target: GFP-tagged neuroplastin 65 with the DDEP insert (UniProt P97546)
[2] = target: GFP-tagged neuroplastin 55 with the DDEP insert
[3] = target: GFP-tagged neuroplastin 55 without the DDEP insert

Measured: binding

B1: mouse N-terminal Flag-tagged TRAF6 (protein, UniProt P70196 1-530)
chain: MSLLNCENSCGSSQSSSDCCAAMAASCSAAVKDDSVSGSASTGNLSSSFMEEIQGYDVEFDPPLESKYECPICLMALREAVQTPCGHRFCKACIIKSIRDAGHKCPVDNEILLENQLFPDNFAKREILSLTVKCPNKGCLQKMELRHLEDHQVHCEFALVNCPQCQRPFQKCQVNTHIIEDCPRRQVSCVNCAVSMAYEEKEIHDQSCPLANIICEYCGTILIREQMPNHYDLDCPTAPIPCTFSVFGCHEKMQRNHLARHLQENTQLHMRLLAQAVHNVNLALRPCDAASPSRGCRPEDPNYEETIKQLESRLVRQDHQIRELTAKMETQSMYVGELKRTIRTLEDKVAEMEAQQCNGIYIWKIGNFGMHLKSQEEERPVVIHSPGFYTGRPGYKLCMRLHLQLPTAQRCANYISLFVHTMQGEYDSHLPWPFQGTIRLTILDQSEALIRQNHEEVMDAKPELLAFQRPTIPRNPKGFGYVTFMHLEALRQGTFIKDDTLLVRCEVSTRFDMGGLRKEGFQPRSTDAGV
binds: [1] | [2] | [3]
